This note sets out measurements from US8624027B2, “Combination therapy for treating cancer and diagnostic assays for use therein” (AbbVie Inc., priority 2005, dated 2014).

The data set can be described thus: Pharmacokinetic evaluation in rat. The format is in vivo. How it is done:
The pharmacokinetic behavior of compounds of this disclosure was determined following a single 2 mg/kg intravenous or 5 mg/kg oral dose in male Sprague-Dawley derived rats (n=3 per group). The compounds were prepared as 2 mg/mL solution in a 10% DMSO in PEG-400 formulation for both oral and intravenous administration. The 1 mL/kg intravenous dose was administered as a slow bolus (about 1-2 minutes) in the jugular vein of a rat under light ether anesthetic. The oral dose was administered by gavage. Serial blood samples were obtained from a tail vein of each rat prior 0.1 (IV only), 0.25, 0.5, 1, 1.5, 2, 3, 4, 6, 8 and 24 hours after dosing. The heparinized samples were thoroughly mixed and placed in an ice bath. Plasma was separated by centrifugation and stored frozen prior to analysis.
The compounds of interest were separated from the plasma using protein precipitation with acetonitrile. A plasma (100-200 μL, sample or spiked standard) aliquot was combined with 50 μL of internal standard (structurally related analog prepared in acetonitrile) and 1 ml acetonitrile in a 96-well polypropylene deep well plate. The plates were vortexed for 30 seconds followed by centrifugation (3500 rpm×15 minutes, 4° C.). In an automated manner, the supernatant was transferred to a clean 96-well plate. The samples were evaporated to near dryness on a Micro-Vap™ under a stream of dry nitrogen over low heat (˜37° C.). The samples were reconstituted vortexing with 0.2 mL 5% DMSO in acetonitrile. A 0.1-0.2 ml aliquot of acetonitrile: 0.1% trifluoroacetic acid (20:80, by volume) was added to each well, followed by an additional 30 second vortexing. The plates were centrifuged (3500 rpm×15 minutes, 4° C.) prior to HPLC-MS/MS analysis. Samples were analyzed simultaneously with spiked plasma standards. All samples from each study were analyzed as a single batch on the LC-MS/MS.
The compounds of interest and the internal standard were separated from each other and co-extracted contaminants on a 50×3 mm Keystone Betasil CN 5 μm column with an acetonitrile: 0.1% trifluoroacetic acid mobile phase (50:50, by volume) at a flow rate of 0.7 ml/min. Analysis was performed on a Sciex API 300™ Biomolecular Mass Analyzer using a heated nebulizer interface. Peak areas of the title compounds and internal standards were determined using the Sciex MacQuan™ software. Calibration curves were derived from peak area ratio (parent drug/internal standard) of the spiked rat plasma standards using least squares linear regression of the ratio versus the theoretical concentration. The methods were generally linear over the range of the standard curve (correlation coefficients >0.99) with an estimated quantitation limit of 0.01 μg/mL. The plasma concentration data for each animal were submitted to multi-exponential curve fitting using WinNonlin. The area under the plasma concentration-time curve from 0 to t hours (time of the last measurable plasma concentration) after dosing (AUC0-t) was calculated using the linear trapezoidal rule for the plasma concentration-time profiles. The residual area extrapolated to infinity, determined as the final measured plasma concentration (Ct) divided by the terminal elimination rate constant (β), was added to AUC0-t to produce the total area under the curve (AUC0-∞). Ki values shown in the tables below were determined using Wang's equation (Wang Z X., An Exact Mathematical Expression For Describing Competitive Binding Of Two Different Ligands To A Protein Molecule. FEBS Lett. 1995; 360:111-4)).

[1] abbreviates: rat oral AUC / NCI-H146 EC50, Table 1.

As for `O=C(NS(=O)(=O)c1ccc(N[C@H](CCN2CCOCC2)CSc2ccccc2)c(S(=O)(=O)C(F)(F)F)c1)c1ccc(N2CCN(CC3=C(c4ccc(Cl)cc4)CCCC3)CC2)cc1` [Example 7, N-(4-(4-((2-(4-chlorophenyl)cyclohex-1-en-1-yl)methyl)piperazin-1-yl)benzoyl)-4-(((1R)-3-(morpholin-4-yl)-1-((phenylsulfanyl)methyl)propyl)amino)-3-((trifluoromethyl)sulfonyl)benzenesulfonamide], the “PK/PD ratio AUC/EC50” value by setting is: (Table 3) 65.6; under setting [1], 66.

`CC1(C)CCC(CN2CCN(c3ccc(C(=O)NS(=O)(=O)c4ccc(N[C@H](CCN5CCOCC5)CSc5ccccc5)c(S(=O)(=O)C(F)(F)Cl)c4)cc3)CC2)=C(c2ccc(Cl)cc2)C1` [Example 2, 3-((chloro(difluoro)methyl)sulfonyl)-N-(4-(4-((2-(4-chlorophenyl)-4,4-dimethylcyclohex-1-en-1-yl)methyl)piperazin-1-yl)benzoyl)-4-(((1R)-3-(morpholin-4-yl)-1-((phenylsulfanyl)methyl)propyl)amino)benzenesulfonamide]: the “PK/PD ratio AUC/EC50” value under setting [1] was 241.

For the compound `O=C(NS(=O)(=O)c1ccc(N[C@H](CCN2C3CCC2CC3)CSc2ccccc2)c(S(=O)(=O)C(F)(F)F)c1)c1ccc(N2CCN(CC3=C(c4ccc(Cl)cc4)CCCC3)CC2)cc1` [Example 8, 4-(((1R)-3-(7-azabicyclo[2.2.1]hept-7-yl)-1-((phenylsulfanyl)methyl)propyl)amino)-N-(4-(4-((2-(4-chlorophenyl)cyclohex-1-en-1-yl)methyl)piperazin-1-yl)benzoyl)-3-((trifluoromethyl)sulfonyl)benzenesulfonamide], the “PK/PD ratio AUC/EC50” value runs as follows: (Table 3) 51.7; under setting [1], 52.

On to `CC1(C)CCC(CN2CCN(c3ccc(C(=O)NS(=O)(=O)c4ccc(N[C@H](CCN5CCCC5)CSc5ccccc5)c(S(=O)(=O)C(F)(F)F)c4)cc3)CC2)=C(c2ccc(Cl)cc2)C1` [Example 34, N-(4-(4-((2-(4-chlorophenyl)-4,4-dimethylcyclohex-1-en-1-yl)methyl)piperazin-1-yl)benzoyl)-4-(((1R)-1-((phenylsulfanyl)methyl)-3-(pyrrolidin-1-yl)propyl)amino)-3-((trifluoromethyl)sulfonyl)benzenesulfonamide], for which, under setting [1], the “PK/PD ratio AUC/EC50” value turned out to be 554.

Consider `CC1(C)CCC(CN2CCN(c3ccc(C(=O)NS(=O)(=O)c4ccc(N[C@H](CCN5CCCC5)CSc5ccccc5)c(S(=O)(=O)C(F)(F)Cl)c4)cc3)CC2)=C(c2ccc(Cl)cc2)C1` [Example 31, 3-((chloro(difluoro)methyl)sulfonyl)-N-(4-(4-((2-(4-chlorophenyl)-4,4-dimethylcyclohex-1-en-1-yl)methyl)piperazin-1-yl)benzoyl)-4-(((1R)-1-((phenylsulfanyl)methyl)-3-(pyrrolidin-1-yl)propyl)amino)benzenesulfonamide], for which the “PK/PD ratio AUC/EC50” value under setting [1] was determined as 392.

Take `CN(C)CC[C@H](CSc1ccccc1)Nc1ccc(S(=O)(=O)NC(=O)c2ccc(N3CCN(Cc4ccccc4-c4ccc(Cl)cc4)CC3)cc2)cc1[N+](=O)[O-]` [B, reference compound]: the “PK/PD ratio AUC/EC50” value (Table 2) was 4.5.

Consider `CC(C)N(C)CC[C@H](CSc1ccccc1)Nc1ccc(S(=O)(=O)NC(=O)c2ccc(N3CCN(CC4=C(c5ccc(Cl)cc5)CC(C)(C)CC4)CC3)cc2)cc1S(=O)(=O)C(F)(F)Cl` [Example 22, 3-((chloro(difluoro)methyl)sulfonyl)-N-(4-(4-((2-(4-chlorophenyl)-4,4-dimethylcyclohex-1-en-1-yl)methyl)piperazin-1-yl)benzoyl)-4-(((1R)-3-(isopropyl(methyl)amino)-1-((phenylsulfanyl)methyl)propyl)amino)benzenesulfonamide], for which the “PK/PD ratio AUC/EC50” value under setting [1] worked out at 105.

As for `O=C(NS(=O)(=O)c1ccc(N[C@H](CCN2CCOCC2)CSc2ccccc2)c(S(=O)(=O)C(F)(F)F)c1)c1ccc(N2CCN(Cc3ccccc3-c3ccc(Cl)cc3)CC2)cc1` [Example 39, N-(4-(4-((4′-chloro(1,1′-biphenyl)-2-yl)methyl)-1-piperazinyl)benzoyl)-4-(((1R)-3-(4-morpholinyl)-1-((phenylsulfanyl)methyl)propyl)amino)-3-((trifluoromethyl)sulfonyl)benzenesulfonamide], the “PK/PD ratio AUC/EC50” value is 20.0 (Table 2) and 20 under setting [1].

In the case of `CN(C)CC[C@H](CSc1ccccc1)Nc1ccc(S(=O)(=O)NC(=O)c2ccc(N3CCN(CC4=C(c5ccc(Cl)cc5)CCCC4)CC3)cc2)cc1S(=O)(=O)C(F)(F)Cl` [Example 18, 3-((chloro(difluoro)methyl)sulfonyl)-N-(4-(4-((2-(4-chlorophenyl)cyclohex-1-en-1-yl)methyl)piperazin-1-yl)benzoyl)-4-(((1R)-3-(dimethylamino)-1-((phenylsulfanyl)methyl)propyl)amino)benzenesulfonamide], the “PK/PD ratio AUC/EC50” value is 39.5 (Table 3) and 40 under setting [1].

`O=C(NS(=O)(=O)c1ccc(N[C@H](CCN2CC3CC2CO3)CSc2ccccc2)c(S(=O)(=O)C(F)(F)F)c1)c1ccc(N2CCN(CC3=C(c4ccc(Cl)cc4)CCCC3)CC2)cc1` (stereo partly drawn) [Example 9, N-(4-(4-((2-(4-chlorophenyl)cyclohex-1-en-1-yl)methyl)piperazin-1-yl)benzoyl)-4-(((1R)-3-(2-oxa-5-azabicyclo[2.2.1]hept-5-yl)-1-((phenylsulfanyl)methyl)propyl)amino)-3-((trifluoromethyl)sulfonyl)benzenesulfonamide]: the “PK/PD ratio AUC/EC50” value by setting is: (Table 3) 137.5; under setting [1], 137.

Consider `O=C(NS(=O)(=O)c1ccc(N[C@H](CCN2CCCC2)CSc2ccccc2)c(S(=O)(=O)C(F)(F)Cl)c1)c1ccc(N2CCN(CC3=C(c4ccc(Cl)cc4)CCCCC3)CC2)cc1` [Example 32, 3-((chloro(difluoro)methyl)sulfonyl)-N-(4-(4-((2-(4-chlorophenyl)cyclohept-1-en-1-yl)methyl)piperazin-1-yl)benzoyl)-4-(((1R)-1-((phenylsulfanyl)methyl)-3-(pyrrolidin-1-yl)propyl)amino)benzenesulfonamide], for which, under setting [1], the “PK/PD ratio AUC/EC50” value came out at 73.9.

Regarding `O=C(NS(=O)(=O)c1ccc(N[C@H](CCN2CCCOCC2)CSc2ccccc2)c(S(=O)(=O)C(F)(F)F)c1)c1ccc(N2CCN(CC3=C(c4ccc(Cl)cc4)CCCC3)CC2)cc1` [Example 15, N-(4-(4-((2-(4-chlorophenyl)cyclohex-1-en-1-yl)methyl)piperazin-1-yl)benzoyl)-4-(((1R)-3-(1,4-oxazepan-4-yl)-1-((phenylsulfanyl)methyl)propyl)amino)-3-((trifluoromethyl)sulfonyl)benzenesulfonamide], the “PK/PD ratio AUC/EC50” value under setting [1] came to 126.

For `O=C(NS(=O)(=O)c1ccc(N[C@H](CCN2CCOCC2)CSc2ccccc2)c(S(=O)(=O)C(F)(F)F)c1)c1ccc(N2CCN(CC3=C(c4ccc(Cl)cc4)CCOC3)CC2)cc1` [Example 21, N-(4-(4-((4-(4-chlorophenyl)-5,6-dihydro-2H-pyran-3-yl)methyl)piperazin-1-yl)benzoyl)-4-(((1R)-3-(morpholin-4-yl)-1-((phenylsulfanyl)methyl)propyl)amino)-3-((trifluoromethyl)sulfonyl)benzenesulfonamide], the “PK/PD ratio AUC/EC50” value under setting [1] stood at 28.

In the case of `O=C(NS(=O)(=O)c1ccc(N[C@H](CCN2CCCC2)CSc2ccccc2)c(S(=O)(=O)C(F)(F)Cl)c1)c1ccc(N2CCN(CC3=C(c4ccc(Cl)cc4)CCCC3)CC2)cc1` [Example 35, 3-((chloro(difluoro)methyl)sulfonyl)-N-(4-(4-((2-(4-chlorophenyl)cyclohex-1-en-1-yl)methyl)piperazin-1-yl)benzoyl)-4-(((1R)-1-((phenylsulfanyl)methyl)-3-(pyrrolidin-1-yl)propyl)amino)benzenesulfonamide], the “PK/PD ratio AUC/EC50” value under setting [1] is on record as 166.

For `CN(C)CC[C@H](CSc1ccccc1)Nc1ccc(S(=O)(=O)NC(=O)c2ccc(N3CCN(CC4=C(c5ccc(Cl)cc5)CCCC4)CC3)cc2)cc1[N+](=O)[O-]` [G, reference compound], under “Table 3”, the “PK/PD ratio AUC/EC50” value is 19.7.
